Measured data: PubChem BioAssay AID1259254 (NCATS, 2017)

- Screen: 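Genome-wide screen for genes that prevent DNA re-replication in cancer cells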 (primary screen)
- Cells: human HCT116 colorectal cancer cells
- Knock-down reagent: single siRNA against human genes
- Time to read-out: 3 days
- Detection: 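Nuclei stained with Hoechst and imaged; cell-cycle phase assigned by DNA content; G2 share scaled per plate, non-targeting siRNA 0%, GMNN siRNA 100%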
- Scale: G2 robust z-score and G2 cells, % of GMNN control: higher = more G2 cells, more excess DNA replication; raw share of cells in G2: higher = larger share of cells with G2 DNA content
- Hit rule: 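An siRNA counts as active if its G2 robust z-score lies at least 5 MADs above the screen median; here such calls match roughly 38% of GMNN control or more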
Here is one part, drawn at random, of about 59,000 deposited reagents. About 1,550 of them (2.6%) count as active. 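G2 share is only a proxy for re-replication; each gene was hit by three separate siRNAs, and active genes were retested.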 Raw values vary from plate to plate and are shown uncorrected. Not given: the amount of reagent.

target gene	PubChem SID	G2 robust z-score	G2 cells, % of GMNN control	raw share of cells in G2 (%)	outcome
MMS19	SID160747572	3.36	26.6	13.8	inactive
MMS19	SID160747573	-0.768	-2.44	3.34	inactive
MMS19	SID160747574	0.0501	3.32	7.02	inactive
PDK1	SID160714054	-1.31	-6.28	3.53	inactive
PDK1	SID160714055	-1.12	-4.92	3.75	inactive
PDK1	SID160714056	-1.6	-8.3	1.1	inactive
BMS1P11	SID160725753	0.208	4.43	4.86	inactive
BMS1P11	SID160725754	-0.901	-3.37	2.16	inactive
BMS1P11	SID160769271	-0.881	-3.23	2.41	inactive
TGDS	SID160736375	-0.934	-3.6	2.95	inactive
TGDS	SID160736376	0.616	7.3	6.37	inactive
TGDS	SID160736377	3.33	26.4	17	inactive
PWWP3B	SID160757671	-0.995	-4.03	2.65	inactive
PWWP3B	SID160757672	-0.475	-0.377	2.98	inactive
PWWP3B	SID160757673	0.284	4.97	4.38	inactive
DDX3X	SID160753332	-0.248	1.22	4.52	inactive
DDX3X	SID160753343	-0.0785	2.42	5.88	inactive
DDX3X	SID160753354	-0.779	-2.52	4.06	inactive
PIEZO1-AS1	SID160725076	-0.912	-3.45	2.8	inactive
PIEZO1-AS1	SID160764144	5.38	40.8	18	active
PIEZO1-AS1	SID160764145	3.82	29.8	16.3	inactive

Entries above whose target name starts with D or d (3):
target gene	PubChem SID	G2 robust z-score	G2 cells, % of GMNN control	raw share of cells in G2 (%)	outcome
DDX3X	SID160753332	-0.248	1.22	4.52	inactive
DDX3X	SID160753343	-0.0785	2.42	5.88	inactive
DDX3X	SID160753354	-0.779	-2.52	4.06	inactive

Continued:
target gene	PubChem SID	G2 robust z-score	G2 cells, % of GMNN control	raw share of cells in G2 (%)	outcome
IFNL3	SID160724976	0.639	7.46	5.93	inactive
IFNL3	SID160724977	-0.431	-0.062	3.25	inactive
IFNL3	SID160762715	2.62	21.4	11.4	inactive
ARPC2	SID160725494	2.28	19	13.9	inactive
ARPC2	SID160725498	-0.258	1.16	4.43	inactive
ARPC2	SID160725506	-0.597	-1.23	2.96	inactive
SYCE3	SID160733864	-0.422	0.000877	3.15	inactive
SYCE3	SID160769138	0.169	4.16	5.22	inactive
SYCE3	SID160769139	0.146	3.99	4.71	inactive
GPD1L	SID160730830	-1.01	-4.14	2.45	inactive
GPD1L	SID160735619	-0.194	1.61	4.69	inactive
GPD1L	SID160735620	-0.604	-1.28	5.86	inactive
OR1L3	SID160738159	-0.747	-2.29	2.98	inactive
OR1L3	SID160738160	2.99	24	13.6	inactive
OR1L3	SID160738161	0.135	3.92	4.49	inactive
ADAM22	SID160741436	0.743	8.19	8.41	inactive
ADAM22	SID160741438	-0.128	2.07	5.64	inactive
ADAM22	SID160741439	-0.108	2.21	4.73	inactive
TMEM225	SID160764063	-0.0766	2.43	4.82	inactive
TMEM225	SID160764064	0.778	8.44	6.95	inactive
TMEM225	SID160764065	1.4	12.8	9.36	inactive
ATG16L2	SID160753457	-0.0482	2.63	5.2	inactive
ATG16L2	SID160753458	-0.203	1.54	3.48	inactive
ATG16L2	SID160753459	-0.0738	2.45	3.7	inactive
ADAMTS19	SID160760492	1.61	14.3	11.6	inactive
ADAMTS19	SID160760493	-0.381	0.285	4.57	inactive
ADAMTS19	SID160760494	-1.03	-4.31	2.66	inactive
